Measurements: article PMC10163288
This is one part of the list.

B1: il10ra_site1_normal_mot_15066a8f41c19a04ca9a9f0a9d91fe83_0001_000000267_0001_1_12_H_._5560783f366cbf3ae937180e39aeb462_0001_af2_0001_0000600014_0000001_0 (protein)
chain: DELEELLREAEELGDEDVVEVAEKLLELVRRGEIPPQNVEALEYILEFALKGDPNAKAIVRAFLR
B2: il10ra_site1_sap_18_mot_HHH_b2_02053_af2_000000006_0001_3_19_H_._HHH_b1_04063_0001_0000800036_0000001_0_0001 (protein)
chain: SSSSDISQEIYELLREAAELHHDGNPEEARKVLEEAEELAEEAGSPNLEEIIEFLLRKVNSSSSS
B3: il10ra_site1_normal_mot_HHH_b2_02736_000000092_0001_22_38_H_._HHH_b1_05779_af2_0001_0000300011_0000001_0 (protein)
chain: SSSSDEIAQQIYELLRRVIELHAEGNPEEAREVLEEAKELAEEANNEVLLHIVEFLEELLSSSSS
B4: il10ra_site1_normal_mot_HHH_b2_00441_000000147_0001_1_18_H_._HHH_b1_01824_0001_0000200015_0000001_0 (protein)
chain: SSSSSEEERRYVELALRFVRLLFKDNEEVAEHLLRLMIQTLERLGDEELIRLLQELLEEISSSSS
B5: il10ra_site1_sap_15_mot_HHH_b1_03653_af2_000000109_0001_1_20_H_._HHH_b1_05348_0001_0000100001_0000001_1_0001 (protein)
chain: SSSSDVEERLEELLKELEELVEEGDTEKFARVAQEAVRLAFRAQDEEVLQRLWELVKELASSSSS
B6: il10ra_site1_normal_mot_3af0db62db2b275566dae2e03bf881fa_0001_000000003_0001_37_50_H_._HHH_b1_07841_0001_0000400021_0000001_0_af2pred_0001 (protein)
chain: SSSSSDRHLRERARAQLRYAELAENPLVARIALEIALKLAEEVNDEELEEEIRRLLEELNSSSSS
B7: il10ra_site1_sap_23_mot_0e2ed5c3f75edde9391a46279eb78c18_0001_000000219_0001_53_65_H_._HHH_b1_07215_af2_0001_0000200011_0000001_0_0001_af2pred_0001 (protein)
chain: DDEEIKERIKREGDPRLNLLSLALFLLKRGVPPRQVELAVKSNAKLLGVPPEEVEELIEEAKELK
B8: il10ra_site1_normal_mot_HHH_b1_01082_af2_000000031_0001_3_19_H_._HHH_b2_07681_0001_0000100003_0000001_0 (protein)
chain: SSSSDEEYEEVKRLIEEIVRLIREGNPEEARKLLEELEELAEETNNPALKFVVELLERDINSSSS
B9: il10ra_site1_normal_mot_HHH_b1_05357_000000034_0001_23_39_H_._HHH_b2_03085_af2_0001_0000400017_0000001_0_af2pred_0001 (protein)
chain: SSSSSEILERVSYLLVRIYALLNSGDHEEAEELEEEVKKVAEEGNDERAKVLIEAFERVISSSSS
B10: il10ra_site1_sap_16_mot_HHH_b2_00369_000000164_0001_40_55_H_._8679c99a27c02dac6322965991044887_0001_0001_0000500022_0000001_0_0001 (protein)
chain: SSSSSEDRELIEAALRLARQAYEWGDPESVRALLWAAQFLAEEINDPELEEKIEELEEELSSSSS
B11: il10ra_site1_sap_25_mot_HHH_b1_05185_000000011_0001_22_39_H_._HHH_b2_08085_0001_0000600021_0000001_0_0001 (protein)
chain: SSSSDEEYEERIRELLEEAEELEDPEERIRLLLEAVRLAYEVNDEELLQLVWEVAKKLGGSSSSS
B12: il10ra_site1_sap_17_mot_HHH_b2_02463_af2_000000222_0001_1_19_H_._HHH_b1_05597_0001_0000400019_0000001_0_0001 (protein)
chain: SSSSDEEAQRLFQAVWELVKRGDEEELEKLLEEIEKLLEEDPRLRKNLRMAAAAARAFLRSSSSS
B13: il10ra_site1_normal_mot_8756ee2cf497b5429c717dfc0c0bcfd6_0001_000000186_0001_1_13_H_._HHH_b1_01984_af2_0001_0000500012_0000001_0_af2pred_0001 (protein)
chain: SSSSSDIKELFELLRRIAELLHEGDEEEAEELIRQAKEIAEELNNLVAEAILRFLEKHLDSSSSS
B14: il10ra_site1_normal_mot_HHH_b2_08186_000000021_0001_43_56_H_._HHH_b1_01436_0001_0000300037_0000001_0 (protein)
chain: SSSSDEEEEEIRRLLEELEELIREGDHEKVAELALRILRLIFEASNEELLKILWRLLKEFGSSSS
B15: il10ra_site1_normal_mot_HHH_b2_00479_000000091_0001_1_12_H_._HHH_b2_01146_0001_0000600069_0000002_0 (protein)
chain: SSSSSDADEIYELLREALELLANGNPEEARKVLEEAEELAEEAGNFTFEFAIRTLQREANSSSSS
B16: il10ra_site1_sap_16_mot_HHH_b2_06480_000000127_0001_1_19_H_._HHH_b1_07210_0001_0000100002_0000001_0_0001 (protein)
chain: SSSSDMEEYIELSLRFAEWLLEAGDPEAARRILEAARDAAEKINNEELKEEIERLQEEVRSSSSS
B17: il10ra_site1_sap_16_mot_HHH_b2_00943_af2_000000149_0001_1_17_H_._HHH_b2_07075_0001_0000400028_0000002_0_0001 (protein)
chain: SSSSSEEKERIEELIEEAERLLENGDPRRAVRVLAEAVRHAHRISDEELLQELWEIIKKVESSSS
B18: il10ra_site1_normal_mot_HHH_b1_07641_af2_000000285_0001_1_21_H_._HHH_b1_03085_af2_0001_0000100001_0000001_0_af2pred_0001 (protein)
chain: SSSSDTEEAQRLLREAVELLREGNPEEAREIAEEALKLAEEAGNVALAWSIRYLLEIIERLSSSS

Biological target: il10ra, Q13651
Assay: yeast display titration

| Binder | apparent Kd |
| --- | --- |
| B1 | inactive: no binding seen |
| B2 | inactive: no binding seen |
| B3 | inactive: no binding seen |
| B4 | inactive: no binding seen |
| B5 | inactive: no binding seen |
| B6 | inactive: no binding seen |
| B7 | inactive: no binding seen |
| B8 | inactive: no binding seen |
| B9 | inactive: no binding seen |
| B10 | inactive: no binding seen |
| B11 | inactive: no binding seen |
| B12 | inactive: no binding seen |
| B13 | inactive: no binding seen |
| B14 | inactive: no binding seen |
| B15 | inactive: no binding seen |
| B16 | inactive: no binding seen |
| B17 | inactive: no binding seen |
| B18 | inactive: no binding seen |

Quoted at random: 2 records from the list.

| Binder | apparent Kd |
| --- | --- |
| B13 | inactive: no binding seen |
| B8 | inactive: no binding seen |
